Test results from patent US20160202245A1.
Where a chain is given by its changes, count along the chain named. No constants are given. Whether binding was seen depends on the method and setting. Some results given as binding are weak or reduced against the parent protein; the word gives no strength.

The chains behind the UniProt entries cited, without tags or fusion partners. Residues count along the entry.
UniProt P60880, residues 1-197: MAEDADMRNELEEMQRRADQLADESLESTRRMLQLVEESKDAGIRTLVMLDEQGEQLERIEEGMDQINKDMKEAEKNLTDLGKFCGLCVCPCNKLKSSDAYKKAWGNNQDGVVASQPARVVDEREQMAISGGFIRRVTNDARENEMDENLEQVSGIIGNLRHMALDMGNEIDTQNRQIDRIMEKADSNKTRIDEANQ

B1: mouse monoclonal antibody 5-10-5 (antibody, V domains shown)
VH: DVQLQESGPGLVKPSQSLSLTCTVTGFSITSDYAWNWIRQFPGNKLEWMGYISYKYGTRYNPSLKGRISITRDTSKNQFFLQLNSLTTEDTAIYYCARRGTDGYGFAYWGQGTLVTVSA
VL: DIVLTQSPASLGVSLGQRATISCRASESVSSSGYSYIHWYQQRPGQPPKLLIFLASNLESGVPARFSGSGSGTDFTLNIHPVEEEDAATYYCQHSRELPLTFGAGTKLELK
B2: mouse monoclonal antibody 20-2-5 (antibody, V domains shown)
VH: EVNLVESGGDLVKPGGSLKLSCAVSGFTFSGYAMSWVRQTPEKRLEWVASIATNGSTYYPDTVKGRFTIFRDNARNILYLQMSSLRSEDTAIYYCTRLRGFDNWGQGTTLTVSS
VL: DVLMTQIPLSLPVSLGDQASISCRSSQNIVHSNGNTYLEWYLQKSGQSPKLLIYKVFKRLSGVPDRFSGSGSGTDFTLRISRVEAEDLGVYYCFQGSHVPYTFGGGTKLEIK
B3: mouse monoclonal antibody 18-3-3 (antibody, V domains shown)
VH: EVKLVESGGGLVKPGGSLKLSCAASGFTFRSYAVSWVRQTPEKRLEWVASISTNGSTYYPDSMKGRFTISRDTARNILYLEMNSLRSEDTAMYYCARLRGFDYWGQGTPLTVSS
VL: B2 VL with I7T, N28S, S45P, F57S, L60F, R79K, S81T
B4: mouse monoclonal antibody 6-3-8 (antibody, V domains shown)
VH: EVKLVEFGGGLVEPRGSLKLSCAASGFTFSTYAMSWVRQTPEKRLEWVASIASNGSTYYPDSVRGRFTISRDNARNILYLQMSSLRSEDTAMYYCSRLRGFDYWGQGSTLTVSS
VL: B2 VL with N28S, S45P, K50S, D75E, R79K, S81N
B5: mouse monoclonal antibody 16-5-4 (antibody, V domains shown)
VH: EVKLVESGGDLVKPGGSLKLSCAASGFTFNTYAMSWVRQTPEKRLEWVASISSNGSTYHPESVKGRFTISRDIARNILNLQMSSLRSEDTAIYYCSRLRGFDYWGQGTTLTVSS
VL: B2 VL with I7T, N28S, S45P, L51P, L60F, R79K
B6: mouse monoclonal antibody 14-12-1 (antibody, V domains shown)
VH: EVKLVESGGDLVKPGGSLKLSCAASGFTLSDYAMSWVRQSPEERLEWVASISTNGSTYYPDSVKGRFTISRDNARNILSLQMSSLRSEDTAIYYCTRLRGFDNWGQGTLLTVSS
VL: B2 VL with I7T, I53M, F57S, S70R, R79K
B7: mouse monoclonal antibody 1-10-4 (antibody, V domains shown)
VH: EVKLVESGGDLVKPGGSLKLSCAVSGFSLNTYAMSWVRQTPEQRLEWVASISTNGSTYHSDSVKGRFTISRYNARNILYLQMSSLRSEDSAIYYCTRLRGFDYWGQGTTLTVSS
VL: B2 VL with V2I, I7T, P12S, S45P, L51P, V56L, F57S, L60F, D75Y, R79K

Biological target: BoNT/A-cleaved SNAP-25197 (UniProt P60880)
Experiment: ELISA and Western blots

Row | Binder | binding
1 | B1 | binds
2 | B2 | binds
3 | B3 | binds
4 | B4 | binds
5 | B5 | binds
6 | B6 | binds
7 | B7 | binds
